Source: publication PMC8618245, “Mechanisms of CP190 Interaction with Architectural Proteins in Drosophila Melanogaster” (International Journal of Molecular Sciences, 2021)
These are yes or no findings as the source states them, for the method shown. For some assays here: In cells and extracts the contact can be indirect. Some results given as binding are weak or reduced against the parent protein; the word gives no strength. Where a sequence is shown, tags or fusion partners need not be part of it.

How the values were obtained:
[1] = molecular target: T1, CP190 D domain fused to the GAL4 DNA-binding domain (Drosophila melanogaster) (UniProt Q24478); assay: two-hybrid; C2H2 proteins or their fragments fused to the GAL4 activation domain (pGAD424), CP190 BTB, D or M domain or full-length CP190 fused to the GAL4 DNA-binding domain (pGBT9); yeast strain pJ69-4A; growth on media without tryptophan, leucine, histidine and adenine compared after 2–3 days, 30 °C; includes the screen of a library of 154 C2H2 proteins
T1 sequence: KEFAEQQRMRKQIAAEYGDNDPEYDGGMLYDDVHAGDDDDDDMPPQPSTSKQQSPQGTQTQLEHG

[2] = molecular target: T2, CP190 M domain (309–470) fused to the GAL4 DNA-binding domain (Drosophila melanogaster) (UniProt Q24478); assay: as above
T2 sequence: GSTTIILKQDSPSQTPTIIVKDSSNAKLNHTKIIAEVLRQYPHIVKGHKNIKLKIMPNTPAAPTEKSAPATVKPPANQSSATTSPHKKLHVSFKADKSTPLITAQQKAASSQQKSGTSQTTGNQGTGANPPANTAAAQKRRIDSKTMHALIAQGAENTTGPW

[3] = molecular target: T3, CP190 1–126 (BTB domain), tag cleaved, crystallised (Drosophila melanogaster), Q24478; assay: crystal structure; CP190 1–126, counter-diffusion in capillaries, 0.1 M HEPES pH 7.5, ammonium and potassium phosphate, +20 °C; 1.4 Å; dimer in the crystal; both purified; settings: remark: other sources report otherwise
T3 chain: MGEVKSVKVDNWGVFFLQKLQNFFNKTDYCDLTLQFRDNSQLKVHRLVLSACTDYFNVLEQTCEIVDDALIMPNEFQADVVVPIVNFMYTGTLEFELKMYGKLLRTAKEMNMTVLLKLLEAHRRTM

[4] = molecular target: T4, GST-fused Pita 220–232 (Drosophila melanogaster) (UniProt Q95RQ8); assay: pull-down; GST pull-down from lysate of BL21 cells co-expressing the GST-fused C2H2 fragment and 6×His-Thioredoxin-fused CP190 1–126; glutathione agarose, buffer C (20 mM Tris pH 7.5, 150 mM NaCl, 10 mM MgCl2, 0.1 mM ZnCl2, 0.1% NP40, 10% glycerol, 1 mM DTT), +4 °C, washes with 500 mM NaCl
T4 sequence: KVLNKSSIRILNK

[5] = molecular target: T5, GST-fused Pita 95–193 (Drosophila melanogaster) (UniProt Q95RQ8); assay: as above
T5 sequence: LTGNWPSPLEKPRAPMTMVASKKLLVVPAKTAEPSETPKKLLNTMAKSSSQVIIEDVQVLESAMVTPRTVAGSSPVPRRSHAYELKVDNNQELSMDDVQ

[6] = molecular target: GST-fused dCTCF 715–733 (Drosophila melanogaster) (UniProt Q9VS55); assay: pull-down
[7] = molecular target: T6, GST-fused Su(Hw) 1–150 (Drosophila melanogaster) (UniProt P08970); assay: pull-down; GST pull-down from lysate of BL21 cells co-expressing the GST-fused C2H2 fragment and 6×His-Thioredoxin-fused CP190 1–126; glutathione agarose, buffer C (20 mM Tris pH 7.5, 150 mM NaCl, 10 mM MgCl2, 0.1 mM ZnCl2, 0.1% NP40, 10% glycerol, 1 mM DTT), +4 °C, washes with 500 mM NaCl
T6 sequence: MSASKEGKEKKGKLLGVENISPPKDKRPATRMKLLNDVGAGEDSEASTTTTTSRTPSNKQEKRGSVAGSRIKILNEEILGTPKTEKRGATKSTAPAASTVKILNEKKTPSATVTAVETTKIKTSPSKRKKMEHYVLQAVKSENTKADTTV

Binder | binding [1] | binding [2] | binding [4] | binding [5] | further results
dCTCF fused to the GAL4 activation domain (protein, UniProt Q9VS55 1-818) MPRRTKKDEDPEDLQTFLNNFHKEIEGNSDEKVVNTILEAISAEAIDLDENGAEAGGSKPMEEAEADLDHAEEAEEEEEDDEDKYFIDDEGNCYIKTTPKKQKELQKKLKQAAAKPGKATRSVVSTATNKSINLRPAKSTPKATTSKPPPEPKAISVRPARAAAAKAKQSAMPPPPALVVKVPAPRGRPRKNPVIPKPEPMDLERELEELVDEPDISSMVTELSDYTVDEAAVEAATATLTPNEAEVYEFEDNATTEDENADKKDVDFVLSNKEVKLKTASSTSQNSNASGHKYSCPHCPYTASKKFLITRHSRSHDVEPSFKCSICERSFRSNVGLQNHINTHMGNKPHKCKLCESAFTTSGELVRHTRYKHTKEKPHKCTECTYASVELTKLRRHMTCHTGERPYQCPHCTYASQDMFKLKRHMVIHTGEKKYQCDICKSRFTQSNSLKAHKLIHSVVDKPVFQCNYCPTTCGRKADLRVHIKHMHTSDVPMTCRRCGQQLPDRYQYKLHVKSHEGEKCYSCKLCSYASVTQRHLASHMLIHLDEKPFHCDQCPQAFRQRQLLRRHMNLVHNEEYQPPEPREKLHKCPSCPREFTHKGNLMRHMETHDDSANAREKRRRLKLGRNVRLQKDGTVITLIKDQYVDMDRDQEENEEDDNPESYDLAEIEPENSEAEDADDDVETIVSDPIRQRIKPAPIIINKQARLAASEKQPMIINQRLRSQRGTKTFHIKEEPDNSDFTVEWQGDDGEVMVVELVNGDEEVLVKHEPSANSKISAKNCFGFEDDDDYEEYGDGENEVDGASQEFLQLMDMIEQDS | no binding | binds | – | – | –
CP190 1–126 (BTB domain), tag cleaved, crystallised, Q24478 1-126 (domain or fragment) MGEVKSVKVDNWGVFFLQKLQNFFNKTDYCDLTLQFRDNSQLKVHRLVLSACTDYFNVLEQTCEIVDDALIMPNEFQADVVVPIVNFMYTGTLEFELKMYGKLLRTAKEMNMTVLLKLLEAHRRTM | – | – | – | – | binding [3]: binds
6×His-Thioredoxin-fused CP190 1–126 F15A (domain or fragment, Drosophila melanogaster, UniProt Q24478 1-126, looked up, CP190, Drosophila melanogaster, residues 1–126 (BTB domain); source: E. coli BL21, co-expressed with the GST fusion, in lysate (pull-down); bacterial expression (cross-linking)) MGEVKSVKVDNWGVAFLQKLQNFFNKTDYCDLTLQFRDNSQLKVHRLVLSACTDYFNVLEQTCEIVDDALIMPNEFQADVVVPIVNFMYTGTLEFELKMYGKLLRTAKEMNMTVLLKLLEAHRRTM | – | – | binds | binds | –
6×His-Thioredoxin-fused CP190 1–126 K19A (domain or fragment, Drosophila melanogaster, UniProt Q24478 1-126, looked up, CP190, Drosophila melanogaster, residues 1–126 (BTB domain); source: E. coli BL21, co-expressed with the GST fusion, in lysate (pull-down); bacterial expression (cross-linking)) MGEVKSVKVDNWGVFFLQALQNFFNKTDYCDLTLQFRDNSQLKVHRLVLSACTDYFNVLEQTCEIVDDALIMPNEFQADVVVPIVNFMYTGTLEFELKMYGKLLRTAKEMNMTVLLKLLEAHRRTM | – | – | binds | binds | –
6×His-Thioredoxin-fused CP190 1–126 K117S (domain or fragment, Drosophila melanogaster, UniProt Q24478 1-126, looked up, CP190, Drosophila melanogaster, residues 1–126 (BTB domain); source: E. coli BL21, co-expressed with the GST fusion, in lysate (pull-down); bacterial expression (cross-linking)) MGEVKSVKVDNWGVFFLQKLQNFFNKTDYCDLTLQFRDNSQLKVHRLVLSACTDYFNVLEQTCEIVDDALIMPNEFQADVVVPIVNFMYTGTLEFELKMYGKLLRTAKEMNMTVLLSLLEAHRRTM | – | – | binds | binds | –
6×His-Thioredoxin-fused CP190 1–126 V7A (domain or fragment, Drosophila melanogaster, UniProt Q24478 1-126, looked up, CP190, Drosophila melanogaster, residues 1–126 (BTB domain); also called BTB^V7A; source: E. coli BL21, co-expressed with the GST fusion, in lysate (pull-down); bacterial expression (cross-linking)) MGEVKSAKVDNWGVFFLQKLQNFFNKTDYCDLTLQFRDNSQLKVHRLVLSACTDYFNVLEQTCEIVDDALIMPNEFQADVVVPIVNFMYTGTLEFELKMYGKLLRTAKEMNMTVLLKLLEAHRRTM | – | – | – | binds | binding [6]: binds; binding [7]: binds
6×His-Thioredoxin-fused CP190 1–126 V114A (domain or fragment, Drosophila melanogaster, UniProt Q24478 1-126, looked up, CP190, Drosophila melanogaster, residues 1–126 (BTB domain); source: E. coli BL21, co-expressed with the GST fusion, in lysate (pull-down); bacterial expression (cross-linking)) MGEVKSVKVDNWGVFFLQKLQNFFNKTDYCDLTLQFRDNSQLKVHRLVLSACTDYFNVLEQTCEIVDDALIMPNEFQADVVVPIVNFMYTGTLEFELKMYGKLLRTAKEMNMTALLKLLEAHRRTM | – | – | binds | binds | –
6×His-Thioredoxin-fused CP190 1–126 V114N (domain or fragment, Drosophila melanogaster, UniProt Q24478 1-126, looked up, CP190, Drosophila melanogaster, residues 1–126 (BTB domain); source: E. coli BL21, co-expressed with the GST fusion, in lysate (pull-down); bacterial expression (cross-linking)) MGEVKSVKVDNWGVFFLQKLQNFFNKTDYCDLTLQFRDNSQLKVHRLVLSACTDYFNVLEQTCEIVDDALIMPNEFQADVVVPIVNFMYTGTLEFELKMYGKLLRTAKEMNMTNLLKLLEAHRRTM | – | – | binds | binds | –
Su(Hw) fused to the GAL4 activation domain (protein, UniProt P08970 1-941) MSASKEGKEKKGKLLGVENISPPKDKRPATRMKLLNDVGAGEDSEASTTTTTSRTPSNKQEKRGSVAGSRIKILNEEILGTPKTEKRGATKSTAPAASTVKILNEKKTPSATVTAVETTKIKTSPSKRKKMEHYVLQAVKSENTKADTTVTVVTEEDDTIDFILADDEEVVPGRIENNNGQEIVVTEDDEDLGEDGDEDGEDSSGKGNSSQTKIKEIVEHVCGKCYKTFRRVQSLKKHLEFCRYDSGYHLRKADMLKNLEKIEKDAVVMEKKDICFCCSESYDTFHLGHINCPDCPKSFKTQTSYERHIFITHSEFSDFPCSICNANLRSEALLALHEEQHKSRGKPYACKICGKDFTRSYHLKRHQKYSSCSSNETDTMSCKVCDRVFYRLDNLRSHLKQHLGTQVVKKPEYMCHTCKNCFYSLSTLNIHIRTHTGEKPFDCDLCDKKFSALVALKKHRRYHTGEKPYSCTVCNQAFAVKEVLNRHMKRHTGERPHKCDECGKSFIQATQLRTHSKTHIRPFPCEQCDEKFKTEKQLERHVKTHSRTKRPVFSCAECKRNFRTPALLKEHMDEGKHSPKQQRSSMRSAVKIMERTDCAICDKNFDSSDTLRRHIRTVHECDPDDIFGVEPHPSKRAKKDIESEEVVPVALNTSAGSLISSQTDGNGVVVREFLVDEGDGAAQTITLENETYTILPLDGAIEGEQLTDEAGVKPEAKKEEAQVSPVVKKEQRKSLAASLAAAIADNLEESCSEDDFSGEILTEEDIKLKENVGKLIDMLVDPPILKKYGWPNAPEETVLCKVIENCGHDLTKGGENYAELDYGSRMREYCKLLFTVVIHNDSIKSLLNNFPIDDVIEYVLGDEDQDEGGLDKDNESHSGDEEAVSVTGETKTNEIREKPEKKEVSAKSEKKEIVGKAVDKDNSEEVVRENKKKPVGEQEKA | no binding | no binding | – | – | –
Pita fused to the GAL4 activation domain (protein, UniProt Q95RQ8 1-683) MAAKLEVREAMLTEKRVCRFCLTEQKLASIFEENPRVKTTANLPLQIMAITAIEVYAGDGMPGHICLECRLLFEHCYRFKQMCKRAETLLRQYPLTGNWPSPLEKPRAPMTMVASKKLLVVPAKTAEPSETPKKLLNTMAKSSSQVIIEDVQVLESAMVTPRTVAGSSPVPRRSHAYELKVDNNQELSMDDVQSMLEDMASELEKEFPDIPQKASPVKPKVLNKSSIRILNKGPAAPVEPRLATPKVKRDDSGNVAIVTEVLDSDLPLDDQDDPTKNAEKVATDVFPCPDCERSFPLQQLLEIHRLNHTRSRSFQCLLCEKSFFSKYDLAKHNFVHTGERPFKCAICSKAFTRKALLHRHERTHTDVPKFICVYCEKPFLSRQEMEKHAERHQKKRPFQCGVCTKSFAFKQGLERHETVHSTNLPFPCQHCERSFSTASKLARHLVAHAGKRAYPCKYCHKSYMLSHHLSRHLRTHTQTSDASFVCSECKVSYSNYNDLLDHALIHATASLKCPMCRKQIEDIDSVESHMDQHKQSERHACEFCDHIFLTQKCLQRHIEDDHVVEMEPYQNEFEDDGEGEGGVDEKEEHLDDFEDMDNVKQEEFVTEYLEDDALYEDHLDDSDESFTPPPPKQRKTNPPKDAQQSVRQTRSRDAQRITQKTGKNEGKPHHKLERNLKNRRSAK | no binding | no binding | – | – | –
